Values from PubChem BioAssay AID686937 (Drosophila RNAi Screening Center, 2013).

- Test: 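Knock-downs that reduce output of a secreted reporter enzyme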 (primary screen)
- Cells: Drosophila S2 cells expressing secreted horseradish peroxidase
- Reagent: long dsRNA against Drosophila genes
- Time to read-out: about 5.5 days (5 days dsRNA, then 12 h reporter induction)
- Treatment: reporter expression induced after 5 days of dsRNA, read 12 h later; inducer not stated
- Measurement: 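After 5 days of dsRNA and 12 h of reporter induction, medium peroxidase read by chemiluminescence and scored as per-plate z-score; higher values mean more reporter released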
- Reading the numbers: z-score: higher = more reporter secreted into medium
The screen tested about 23,000 reagents; this is a random part of those that have a named target and a result. 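Reduced-secretion tags in replicate 1 do not always agree with the z-scores; no criterion for assigning the tags was given.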 A plus sign joins genes that one reagent is predicted to hit. Further read-outs or replicates are left out here. The record does not give: the amount of reagent.

gene,DRSC id,"z-score, replicate 1","z-score, replicate 2"
CG8042,DRSC09676,0.32,0.3
CG31086 + CG31323,DRSC14902,0.18,0.07
CG30472,DRSC22245,-0.04,0.28
Chrac-16,DRSC20343,0.39,0.18
Obp83a,DRSC12362,0.2,-0.79
sli,DRSC07684,-4.19,0.45
sli,DRSC22936,0.99,0.2
AsnS,DRSC11468,-0.16,-0.01
Mnat9,DRSC14325,0.46,0.27
CG42820,DRSC02265,0.79,0.53
cbt,DRSC00655,0.11,0.32
gcm,DRSC03536,0.64,0.43
CG5746,DRSC15868,0.17,0.37
CG3740,DRSC18508,0.21,0.39
CG14062,DRSC14725,0.3,0.26
Tre1,DRSC18726,-0.1,-1.1
CG15333,DRSC18016,0.37,0.56
CG15333,DRSC18153,0.19,0.56
Cpr47Eg,DRSC07330,0.1,0.22
kri,DRSC10515,0.6,0.46
AOX2,DRSC15338,0.38,0.25
Cyp6t3,DRSC07388,0.06,0.21
Nepl8,DRSC02759,0.18,0.14
lncRNA:Hsromega,DRSC22875,0.06,0.05
Kcmf1,DRSC14459,0.6,0.58
ssp7,DRSC18878,0.31,0.43
CG32988,DRSC02692,0.59,0.56
CG11029,DRSC02119,-0.61,-0.48
Roc1a,DRSC18483,-3.43,-3.2
CG42507 + Trl,DRSC09325,0.47,0.44
CG42507 + Trl,DRSC11308,-2.28,-1.12
CG13309,DRSC09980,0.27,0.29
CG8541,DRSC10989,0.07,0.25
Ser6,DRSC20574,0.5,0.22
Gcn2,DRSC16678,0.27,0.08
Syb,DRSC07559,0.15,0.08
Als2,DRSC11806,0.21,0.29
CG4770,DRSC15639,0.41,0.41
CG15643,DRSC19679,0.46,0.17
CG10211,DRSC02027,-0.38,0.55
FIG4,DRSC00515,0.2,0.19
Sar1,DRSC17049,-3.16,-3.3
Sar1,DRSC22115,-0.13,-0.23
CNMa,DRSC08405,-0.35,-0.2
Cdc42,DRSC20228,0.06,0.53
Mvk + CG33672 + spt4,DRSC05356,-9.37,0.26
Mvk + CG33672 + spt4,DRSC06628,0.31,0.07
knrl,DRSC11892,0.15,-0.03
Dad1,DRSC02263,-0.42,-1.16
Uros1,DRSC18191,0.45,0.44
rt,DRSC11391,0.08,0
lncRNA:CR31647,DRSC21903,0.2,0.33
CG8281,DRSC10976,0.44,0.39
CG13306,DRSC09976,0.17,0.08
CG15394,DRSC00408,0.07,0.12
mrj,DRSC22592,1.29,0.45
DNAlig3,DRSC15201,0.23,0.53
CG6066,DRSC15959,0.39,0.44
CG6066,DRSC22228,1.34,2.17
CG13667,DRSC10028,0.24,0.4
Hnf4,DRSC01032,0.69,0.34
Hnf4,DRSC03344,0.69,0.62
Cbs,DRSC20553,0.23,0.32
lds,DRSC16988,0.15,0.09
CG1486,DRSC20508,0.32,0.22
CG5160,DRSC02821,0.15,0.37
CG10694,DRSC14263,0.4,0.37
CG14780,DRSC18566,0.18,0.36
Samtor,DRSC04390,-0.05,0.04
Taf4,DRSC11297,-1.1,-1.09
Lpin,DRSC07241,0.15,0.25
CG4661,DRSC19910,0.28,0.64
CalpB,DRSC11109,0.25,0.11
wuho,DRSC18101,0.25,0.56
RpL5,DRSC03801,-5.01,-2.99
CG11598,DRSC14331,0.4,0.56
CG30082,DRSC22945,1.23,0.3
alphaSnap,DRSC11285,-6.26,-5.73
CG14326,DRSC14805,-0.19,-0.03
Diap2,DRSC07444,0.32,0.15
Indy-2 + CG33934,DRSC15685,0.35,0.29
Indy-2 + CG33934,DRSC15686,0.28,0.52
